Paper PMC4733052, “Heart of glass anchors Rasip1 at endothelial cell-cell junctions to support vascular integrity” (eLife, 2016)
These are yes or no findings as the source states them, for the method shown. For some of these results: In cells and extracts the contact can be indirect. Some results given as binding are weak or reduced against the parent protein; the word gives no strength. Tags and fused reporters may be left off the sequences shown.

Amino acid sequences for entries named in this document (tags omitted). Residues count along the entry.
UniProt P08514, residues 1020-1039: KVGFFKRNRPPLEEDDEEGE

Assays:
[1] = target: T1, FLAG-tagged murine HEG1(∆1283-1291) (mouse) (UniProt E9Q7X6); assay: co-IP; HEK293T or U2OS transfected (U2OS also infected with shCtrl or shHEG1#1; in one panel 5 µM purified HEG1 tail peptide added), clarified lysate on anti-FLAG G1 Affinity Resin, 4°C 3 hours; Western blot
T1 sequence: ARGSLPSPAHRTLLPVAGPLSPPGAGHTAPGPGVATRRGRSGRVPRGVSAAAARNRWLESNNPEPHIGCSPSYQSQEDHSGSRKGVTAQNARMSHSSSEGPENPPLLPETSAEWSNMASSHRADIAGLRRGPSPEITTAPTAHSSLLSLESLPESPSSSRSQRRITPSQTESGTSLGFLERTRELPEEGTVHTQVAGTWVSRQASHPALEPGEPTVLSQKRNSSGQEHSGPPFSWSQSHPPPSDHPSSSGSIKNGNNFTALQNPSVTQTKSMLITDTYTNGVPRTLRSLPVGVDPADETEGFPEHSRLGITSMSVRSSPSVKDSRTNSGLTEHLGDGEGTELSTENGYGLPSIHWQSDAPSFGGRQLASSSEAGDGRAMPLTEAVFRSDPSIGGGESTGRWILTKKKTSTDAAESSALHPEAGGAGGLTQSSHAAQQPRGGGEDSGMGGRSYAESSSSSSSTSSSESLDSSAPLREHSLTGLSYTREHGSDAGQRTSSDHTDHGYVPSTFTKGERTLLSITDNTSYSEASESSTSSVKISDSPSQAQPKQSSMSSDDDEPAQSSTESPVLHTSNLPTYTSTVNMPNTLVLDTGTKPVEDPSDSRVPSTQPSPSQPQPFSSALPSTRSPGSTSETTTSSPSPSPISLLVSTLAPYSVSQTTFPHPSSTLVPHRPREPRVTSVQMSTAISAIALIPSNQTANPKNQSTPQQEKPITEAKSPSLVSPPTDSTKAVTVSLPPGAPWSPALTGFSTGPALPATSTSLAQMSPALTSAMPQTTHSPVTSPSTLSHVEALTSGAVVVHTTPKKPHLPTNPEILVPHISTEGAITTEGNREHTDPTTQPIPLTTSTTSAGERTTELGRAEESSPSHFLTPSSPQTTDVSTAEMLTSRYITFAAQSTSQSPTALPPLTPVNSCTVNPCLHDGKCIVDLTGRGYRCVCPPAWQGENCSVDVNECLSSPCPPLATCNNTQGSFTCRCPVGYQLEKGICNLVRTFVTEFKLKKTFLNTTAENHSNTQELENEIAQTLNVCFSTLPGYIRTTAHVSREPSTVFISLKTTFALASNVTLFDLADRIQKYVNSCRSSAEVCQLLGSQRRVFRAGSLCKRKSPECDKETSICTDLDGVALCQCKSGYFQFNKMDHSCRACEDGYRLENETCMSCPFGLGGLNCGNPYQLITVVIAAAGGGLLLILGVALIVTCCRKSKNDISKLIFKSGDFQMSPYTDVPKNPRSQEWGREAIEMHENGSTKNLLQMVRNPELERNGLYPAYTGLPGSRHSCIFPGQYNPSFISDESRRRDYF

[2] = target: T2, FLAG-tagged full-length murine HEG1 (mouse) (UniProt E9Q7X6); assay: as above
T2 sequence: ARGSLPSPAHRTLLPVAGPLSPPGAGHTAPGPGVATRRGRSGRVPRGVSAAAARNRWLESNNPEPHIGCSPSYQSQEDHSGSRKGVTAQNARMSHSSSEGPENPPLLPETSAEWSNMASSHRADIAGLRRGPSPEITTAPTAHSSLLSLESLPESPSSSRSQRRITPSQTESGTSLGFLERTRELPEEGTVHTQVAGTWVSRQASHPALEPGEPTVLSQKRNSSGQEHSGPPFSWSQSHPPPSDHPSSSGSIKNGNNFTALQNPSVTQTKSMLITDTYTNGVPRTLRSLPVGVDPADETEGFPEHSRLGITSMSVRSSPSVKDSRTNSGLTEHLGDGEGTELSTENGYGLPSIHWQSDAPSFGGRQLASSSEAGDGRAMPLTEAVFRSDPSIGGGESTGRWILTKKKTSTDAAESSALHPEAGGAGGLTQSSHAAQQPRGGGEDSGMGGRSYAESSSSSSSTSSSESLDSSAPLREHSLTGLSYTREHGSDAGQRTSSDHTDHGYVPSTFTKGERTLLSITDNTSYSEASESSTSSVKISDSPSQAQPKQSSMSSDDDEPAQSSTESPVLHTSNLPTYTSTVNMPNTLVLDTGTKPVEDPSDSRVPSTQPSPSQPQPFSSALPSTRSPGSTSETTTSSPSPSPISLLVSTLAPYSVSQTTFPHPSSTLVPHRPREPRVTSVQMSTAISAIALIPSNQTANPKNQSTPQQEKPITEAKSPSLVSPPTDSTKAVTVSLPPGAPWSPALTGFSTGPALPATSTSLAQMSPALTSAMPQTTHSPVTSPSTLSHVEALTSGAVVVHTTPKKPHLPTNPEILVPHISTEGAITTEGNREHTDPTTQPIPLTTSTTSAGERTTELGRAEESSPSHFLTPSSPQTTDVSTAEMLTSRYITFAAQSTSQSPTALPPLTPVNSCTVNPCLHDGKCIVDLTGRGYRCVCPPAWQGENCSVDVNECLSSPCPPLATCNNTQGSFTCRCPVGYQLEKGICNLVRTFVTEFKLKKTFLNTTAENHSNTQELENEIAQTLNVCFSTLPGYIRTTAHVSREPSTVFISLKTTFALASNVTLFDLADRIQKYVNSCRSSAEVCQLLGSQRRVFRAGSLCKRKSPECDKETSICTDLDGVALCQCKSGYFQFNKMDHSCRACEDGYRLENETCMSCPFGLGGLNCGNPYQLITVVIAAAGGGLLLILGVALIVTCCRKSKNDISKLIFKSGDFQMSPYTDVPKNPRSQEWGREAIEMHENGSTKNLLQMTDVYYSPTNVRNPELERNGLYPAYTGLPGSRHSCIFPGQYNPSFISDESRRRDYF

[3] = target: T3, full-length FLAG-tagged Rasip1 (U2OS) (human) (UniProt Q5U651); assay: as above
T3 sequence: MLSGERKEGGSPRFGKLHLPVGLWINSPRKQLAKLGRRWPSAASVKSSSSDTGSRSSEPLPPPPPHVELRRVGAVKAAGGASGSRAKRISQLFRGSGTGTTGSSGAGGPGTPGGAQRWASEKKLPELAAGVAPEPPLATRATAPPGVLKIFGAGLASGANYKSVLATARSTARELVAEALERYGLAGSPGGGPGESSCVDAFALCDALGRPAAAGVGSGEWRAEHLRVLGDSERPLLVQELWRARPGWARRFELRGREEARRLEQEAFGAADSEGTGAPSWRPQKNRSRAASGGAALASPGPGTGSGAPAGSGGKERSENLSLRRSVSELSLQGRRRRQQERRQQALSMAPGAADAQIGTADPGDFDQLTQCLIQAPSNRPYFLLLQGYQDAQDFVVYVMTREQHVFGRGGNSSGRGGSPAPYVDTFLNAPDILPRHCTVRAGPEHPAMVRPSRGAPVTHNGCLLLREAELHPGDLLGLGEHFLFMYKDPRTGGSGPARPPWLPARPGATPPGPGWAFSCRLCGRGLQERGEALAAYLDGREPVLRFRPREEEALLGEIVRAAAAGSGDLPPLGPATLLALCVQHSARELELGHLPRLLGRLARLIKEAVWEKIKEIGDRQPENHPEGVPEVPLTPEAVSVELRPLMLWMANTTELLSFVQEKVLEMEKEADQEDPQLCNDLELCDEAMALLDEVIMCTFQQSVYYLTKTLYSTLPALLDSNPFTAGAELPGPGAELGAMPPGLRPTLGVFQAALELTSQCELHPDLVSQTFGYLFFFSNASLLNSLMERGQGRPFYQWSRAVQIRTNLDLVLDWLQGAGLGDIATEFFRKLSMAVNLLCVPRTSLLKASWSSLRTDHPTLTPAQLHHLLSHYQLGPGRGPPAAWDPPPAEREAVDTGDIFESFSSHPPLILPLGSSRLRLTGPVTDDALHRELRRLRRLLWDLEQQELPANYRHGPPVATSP

[4] = target: αIIb integrin cytoplasmic tail (UniProt P08514); assay: pull-down; His-MBP-Rasip1 central domain at 2.5 μM incubated with HEG1 matrices in PBS with 0.1% Triton X-100, 0.5 mM EDTA, 2 mM DTT, 1 mM Maltose, 6°C 1 hour; SDS-PAGE, Coomassie-blue; both purified

B1: GFP-tagged full-length Rasip1 (HEK293T) (protein, UniProt Q5U651 1-963)
chain: MLSGERKEGGSPRFGKLHLPVGLWINSPRKQLAKLGRRWPSAASVKSSSSDTGSRSSEPLPPPPPHVELRRVGAVKAAGGASGSRAKRISQLFRGSGTGTTGSSGAGGPGTPGGAQRWASEKKLPELAAGVAPEPPLATRATAPPGVLKIFGAGLASGANYKSVLATARSTARELVAEALERYGLAGSPGGGPGESSCVDAFALCDALGRPAAAGVGSGEWRAEHLRVLGDSERPLLVQELWRARPGWARRFELRGREEARRLEQEAFGAADSEGTGAPSWRPQKNRSRAASGGAALASPGPGTGSGAPAGSGGKERSENLSLRRSVSELSLQGRRRRQQERRQQALSMAPGAADAQIGTADPGDFDQLTQCLIQAPSNRPYFLLLQGYQDAQDFVVYVMTREQHVFGRGGNSSGRGGSPAPYVDTFLNAPDILPRHCTVRAGPEHPAMVRPSRGAPVTHNGCLLLREAELHPGDLLGLGEHFLFMYKDPRTGGSGPARPPWLPARPGATPPGPGWAFSCRLCGRGLQERGEALAAYLDGREPVLRFRPREEEALLGEIVRAAAAGSGDLPPLGPATLLALCVQHSARELELGHLPRLLGRLARLIKEAVWEKIKEIGDRQPENHPEGVPEVPLTPEAVSVELRPLMLWMANTTELLSFVQEKVLEMEKEADQEDPQLCNDLELCDEAMALLDEVIMCTFQQSVYYLTKTLYSTLPALLDSNPFTAGAELPGPGAELGAMPPGLRPTLGVFQAALELTSQCELHPDLVSQTFGYLFFFSNASLLNSLMERGQGRPFYQWSRAVQIRTNLDLVLDWLQGAGLGDIATEFFRKLSMAVNLLCVPRTSLLKASWSSLRTDHPTLTPAQLHHLLSHYQLGPGRGPPAAWDPPPAEREAVDTGDIFESFSSHPPLILPLGSSRLRLTGPVTDDALHRELRRLRRLLWDLEQQELPANYRHGPPVATSP
B1 was tested, and the binding [1] was “no binding” and the binding [2] was “binds”.

B2: mCherry-HA-Radil (protein, UniProt Q96JH8 1-1075)
chain: MFYGTHFIMSPPTKSKLKRQSQLLSSMLSRTLSYKYRDLDSTFSSLGASDDPAELSTQLSAPGVLKVFGDSVCTGTHYKSVLATGTSSARELVKEALERYALDPRQAGQYVLCDVVGQAGDAGQRWQARCFRVFGDSEKPLLIQELWKPREGLSRRFELRKRSDVEELAAKEVDTITAGINAQARRLQRSRAKGTPTPALGDARSSPPPRLRRTVSETSLSPVNALPAAAQGPEEPGPDAMRYSLYQSPHLLLLQGYSQQHDSLVYVLNRDRHTVGQRTPSSKPSISLSAPDILPLHCTIRRQPLPDSGQAAGRLVLEPIPGAHISVNFSEVGHRTVVLHHGDLLSLGLYYLLLFKDPAQAQPLPARALARLRAVPQSCRLCGAALGARGAASPTQAALPRRQQLLLEFEPHLEDTLLQRIMTLIEPGGDDHKLTPAFLLCLCIQHSATHFQPGTFGQLLLKIARLIRETVWEKTKELAEKQAQLQEPISLASCAMADLVPDLQPILFWMSNSIELLYFIQQKCPLYMQSMEEQLDITGSKESLFSCTLTASEEAMAVLEEVVLYAFQQCVYYVSKSLYICLPALLECPPFQTERRESWSSAPELPEELRRVVSVYQAALDLLRQLQVHPEVASQMLAYLFFFSGTLLLNQLLDRGPSLSCFHWPRGVQACARLQQLLEWMRSAGFGAAGEHFFQKLSCTLNLLATPRAQLIQMSWTALRAAFPALSPAQLHRLLTHYQLASAMGPMSTWEPGAQDSPEAFRSEDVLESYENPPPIVLPSDGFQVDLEANCLDDSIYQHLLYVRHFLWGLRSRASPGSPGRPGSGASQPVCPEGMHHVVLDGHLEAPSCPLAPRDPGPAAREVAPERTLPLRGAPWAQAPPGRQPSRGGSQAGPPHTDSSCLLTPPSTPLGPEPGDPDWPESGGPCGKALPERQRNGLSGLRGAAPEGDSAALAEESPPAPSSRSSSTEDFCYVFTVELERGPSGLGMGLIDGMHTHLGAPGLYIQTLLPGSPAAADGRLSLGDRILEVNGSSLLGLGYLRAVDLIRHGGKKMRFLVAKSDVETAKKIHFRTPPL
In the case of B2, the binding [3] is reported as “binds”.

B3: recombinant His-MBP-fusion Rasip1 central domain (residues 266-550) (protein)
chain: EAFGAADSEGTGAPSWRPQKNRSRAASGGAALASPGPGTGSGAPAGSGGKERSENLSLRRSVSELSLQGRRRRQQERRQQALSMAPGAADAQIGTADPGDFDQLTQCLIQAPSNRPYFLLLQGYQDAQDFVVYVMTREQHVFGRGGNSSGRGGSPAPYVDTFLNAPDILPRHCTVRAGPEHPAMVRPSRGAPVTHNGCLLLREAELHPGDLLGLGEHFLFMYKDPRTGGSGPARPPWLPARPGATPPGPGWAFSCRLCGRGLQERGEALAAYLDGREPVLRFRPR
For B3, the binding [4] was “no binding (tested: 2.5 μM)”.
